Experimental data: patent US4997648 (dated 1991)

Test: general procedure: solution-phase peptide synthesis; DppCl / NMM (mixed anhydride)
Settings: coupling step

Substance	step yield [%]
Z-(Me)Thr(Bu^t)-Abu-Sar-(Me)Leu-Val-(Me)Leu-Ala-D-Ala-(Me)Leu-(Me)Leu-(Me)Val-OBu^t	86
Z-Nle-Sar-(Me)Leu-Val-(Me)Leu-Ala-D-Ala-(Me)Leu-(Me)Leu-(Me)Val-OBu^t	77
Z-(Me)Ser(Bu^t)-Thr(Bu^t)-Sar-(Me)Leu-Val-(Me)Leu-Ala-D-Ala-(Me)Leu-(Me)Val-OBu^t	52
Z-(Me)Thr(Bu^t)-Nva-Sar-(Me)Leu-Val-(Me)Leu-Ala-D-Ala-(Me)Leu-(Me)Leu-(Me)Val-OBu^t	65
Z-Nva-Sar-(Me)Leu-Val-(Me)Leu-Ala-D-Ala-(Me)Leu-(Me)Leu-(Me)Val-OBu^t	86
Z-(Me)Thr-Abu-Sar-(Me)Leu-Val-(Me)Leu-Ala-D-Ala-(Me)Leu-(Me)Leu-(Me)Val-OH	75
Z-(Me)Ser(Bu^t)-Nva-Sar-(Me)Leu-Val-(Me)Leu-Ala-D-Ala-(Me)Leu-(Me)Leu-(Me)Val-OBu^t	73
Z-(Me)Leu-Ala-D-Ala-(Me)Leu-(Me)Leu-(Me)Val-Obu^t	92
H-(Me)Leu-Ala-D-Ala-(Me)Leu-(Me)Leu-(Me)Val-OBu^t	68
H-L-Ala-D-Ala-(Me)Leu-(Me)Leu-(Me)Val-OBu^t	81
Z-Hyp(Bu^t)-Abu-Sar-(Me)Leu-Val-(Me)Leu-Ala-D-Ala-(Me)Leu-(Me)Leu-(Me)Val-OBu^t	96
Z-D-Ala-(Me)Leu-(Me)Leu-(Me)Val-OBu^t	80
Z-Abu-Sar-(Me)Leu-Val-(Me)Leu-Ala-D-Ala-(Me)Leu-(Me)Leu-(Me)Val-OBu^t	90
Fmoc-(Me)Thr(Bu^t)-Abu-Sar-(Me)Leu-Val-(Me)Leu-Ala-D-Ala-(Me)Leu-(Me)Leu-(Me)Leu-(Me)Val-OBu^t	69
Z-Ala-D-Ala-(Me)Leu-(Me)Leu-(Me)Val-OBu^t	88

Same assay, conditions: coupling step; run 1

Substance	step yield [%]
Z-(Me)Leu-Val-(Me)Leu-Ala-D-Ala-(Me)Leu-(Me)Leu(Me)Val-OBu^t	27

Same assay, conditions: coupling step; run 2

Substance	step yield [%]
Z-(Me)Leu-Val-(Me)Leu-Ala-D-Ala-(Me)Leu-(Me)Leu(Me)Val-OBu^t	94

Same assay, conditions: late stage modification step

Substance	step yield [%]
H-(Me)Thr-Abu-Sar-(Me)Leu-Val-(Me)Leu-Ala-D-Ala-(Me)Leu-(Me)Leu-(Me)Val-OH	94
Z-Hyp-Abu-Sar-(Me)Leu-Val-(Me)Leu-Ala-D-Ala-(Me)Leu-(Me)Leu-(Me)Val-OH	65
Z-Hyp(Bu^t)-Nle-Sar-(Me)Leu-Val-(Me)Leu-Ala-D-Ala-(Me)Leu-(Me)Leu-(Me)Val-OBu^t	94
H-Nle-Sar-(Me)Leu-Val-(Me)Leu-Ala-D-Ala-(Me)Leu-(Me)Leu-(Me)Val-OBu^t	95
H-(Me)Ser-Nle-Sar-(Me)Leu-Val-(Me)Leu-Ala-D-Ala-(Me)Leu-(Me)Leu-(Me)Val-OH	81
H-Val-(Me)Leu-Ala-D-Ala-(Me)Leu-(Me)Leu-(Me)Leu-(Me)Val-OBu^t	93
H-(Me)Thr-Nle-Sar-(Me)Leu-Val-(Me)Leu-Ala-D-Ala-(Me)Leu-(Me)Leu-(Me)Val-OH	89
H-Hyp-Abu-Sar-(Me)Leu-Val-(Me)Leu-Ala-D-Ala-(Me)Leu-(Me)Leu-(Me)Val-OH	96
Z-(Me)Ser-Abu-Sar-(Me)Leu-Val-(Me)Leu-Ala-D-Ala-(Me)Leu-(Me)Leu-(Me)Val-OH	79
H-Thr(Bu^t)-Sar-(Me)Leu-Val-(Me)Leu-L-Ala-D-Ala-(Me)Leu-(Me)Leu-(Me)Val-OBu^t	88
H-Nva-Sar-(Me)Leu-Val-(Me)Leu-Ala-D-Ala-(Me)Leu-(Me)Leu-(Me)Val-OBu^t	94
Boc-Dab(Fmoc)-Abu-Sar-(Me)Leu-Val-(Me)Leu-Ala-D-Ala-(Me)Leu-(Me)Leu-(Me)Val-OBu^t	95
Z-(Me)Thr-Nva-Sar-(Me)Leu-Val-(Me)Leu-Ala-D-Ala-(Me)Leu-(Me)Leu-(Me)Val-OH	68
H-D-Ala-(Me)Leu-(Me)Leu-(Me)Val-OBu^t	93
Z-(Me)Thr-Nle-Sar-(Me)Leu-Val-(Me)Leu-Ala-D-Ala-(Me)Leu-(Me)Leu-(Me)Val-OH	60
Z-(Me)Ser-Nva-Sar-(Me)Leu-Val-(Me)Leu-Ala-D-Ala-(Me)Leu-(Me)Leu-(Me)Val-OH	60
H-(Me)Ser-Abu-Sar-(Me)Leu-Val-(Me)Leu-Ala-D-Ala-(Me)Leu-(Me)Leu-(Me)Val-OH	96
H-(Me)Ser-Nva-Sar-(Me)Leu-Val-(Me)Leu-Ala-D-Ala-(Me)Leu-(Me)Leu-(Me)Val-OH	83
Z-Hyp-Nle-Sar-(Me)Leu-Val-(Me)Leu-Ala-D-Ala-(Me)Leu-(Me)Leu-(Me)Val-OH	77
H-Sar-(Me)Leu-Val-(Me)Leu-Ala-D-Ala-(Me)Leu-(Me)Leu-(Me)Val-OBu^t	97
H-(Me)Ser-Thr-Sar-(Me)Leu-Val-(Me)Leu-Ala-D-Ala-(Me)Leu-(Me)Leu-(Me)Val-OH	95
Z-(Me)Ser-Thr-Sar-(Me)Leu-Val-(Me)Leu-Ala-D-Ala-(Me)Leu-(Me)Leu-(Me)Val-OH	50
H-(Me)Thr-Nva-Sar-(Me)Leu-Val-(Me)Leu-Ala-D-Ala-(Me)Leu-(Me)Leu-(Me)Val-OH	88
Z-(Val-(Me)Leu-Ala-D-Ala-(Me)Leu-(Me)Leu-(Me)Val-OBu^t	94

Same assay, conditions: late stage modification step, TFA

Substance	step yield [%]
H-Dab(Fmoc)-Abu-Sar-(Me)Leu-Val-(Me)Leu-Ala-D-Ala-(Me)Leu-(Me)Leu-(Me)Val-OH.TFA	100
